Drawing on publication PMC12116747, this text covers binding for one substance.

Protein sequences, listed by entry. Tags and fused reporters are not part of them.
UniProt O43809: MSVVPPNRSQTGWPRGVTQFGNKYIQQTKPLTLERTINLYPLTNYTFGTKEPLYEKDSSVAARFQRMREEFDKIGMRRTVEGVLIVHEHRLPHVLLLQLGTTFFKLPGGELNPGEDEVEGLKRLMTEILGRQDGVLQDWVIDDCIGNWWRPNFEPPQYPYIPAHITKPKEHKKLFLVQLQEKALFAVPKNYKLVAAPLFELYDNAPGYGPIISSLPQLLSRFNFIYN
UniProt Q92769: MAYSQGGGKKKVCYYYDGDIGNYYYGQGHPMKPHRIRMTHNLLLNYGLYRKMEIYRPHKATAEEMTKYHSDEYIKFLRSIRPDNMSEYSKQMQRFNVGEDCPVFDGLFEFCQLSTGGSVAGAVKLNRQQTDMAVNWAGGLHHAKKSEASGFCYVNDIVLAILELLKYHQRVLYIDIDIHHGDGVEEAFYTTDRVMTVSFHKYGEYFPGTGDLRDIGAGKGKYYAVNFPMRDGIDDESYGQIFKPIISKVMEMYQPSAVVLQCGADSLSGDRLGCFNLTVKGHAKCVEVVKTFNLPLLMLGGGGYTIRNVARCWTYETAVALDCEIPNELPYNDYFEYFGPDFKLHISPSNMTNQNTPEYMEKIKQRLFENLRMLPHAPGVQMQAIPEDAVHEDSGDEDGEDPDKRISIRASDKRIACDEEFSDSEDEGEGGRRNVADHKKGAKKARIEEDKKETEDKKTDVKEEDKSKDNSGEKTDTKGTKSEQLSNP

For this test, the target named is NUDT21 (immunoprecipitated from cells; Co-IP with AARS1 and LC-MS/MS) (human) (UniProt O43809). Description: affinity purification with mass spectrometry; LC-MS/MS after NUDT21 immunoprecipitation; cells not told.

Results are given in words; binding and its absence hold for the method and conditions named. In cells and extracts the contact can be indirect. Here binding means that the protein was enriched with, or labelled near, the bait; the list need not be complete.

For the substance “HDAC2 (found by LC-MS/MS in the NUDT21 immunoprecipitate) (from UniProt Q92769 1-488) (enzyme)”, the binding result is “binds”.
